What all share (experiment): co-IP; vesicle IP of MIN6 postnuclear fractions (10 mM HEPES pH 7.4, 150 mM NaCl, 0.1% Triton X-100) on protein A beads with anti-CaV1.2, anti-Kir6.2 or anti-STIP1 antibody or normal rabbit IgG, immunoblotting; cells transduced with scrambled-control or KIF5B-knockdown miRNA for 6 days and treated with 10 uM MG-132 for 6 h; also non-transduced against KIF5B- and Hsc70-overexpressing cells

Chains of the proteins cited; added tags and fusions are not shown.
UniProt Q01815: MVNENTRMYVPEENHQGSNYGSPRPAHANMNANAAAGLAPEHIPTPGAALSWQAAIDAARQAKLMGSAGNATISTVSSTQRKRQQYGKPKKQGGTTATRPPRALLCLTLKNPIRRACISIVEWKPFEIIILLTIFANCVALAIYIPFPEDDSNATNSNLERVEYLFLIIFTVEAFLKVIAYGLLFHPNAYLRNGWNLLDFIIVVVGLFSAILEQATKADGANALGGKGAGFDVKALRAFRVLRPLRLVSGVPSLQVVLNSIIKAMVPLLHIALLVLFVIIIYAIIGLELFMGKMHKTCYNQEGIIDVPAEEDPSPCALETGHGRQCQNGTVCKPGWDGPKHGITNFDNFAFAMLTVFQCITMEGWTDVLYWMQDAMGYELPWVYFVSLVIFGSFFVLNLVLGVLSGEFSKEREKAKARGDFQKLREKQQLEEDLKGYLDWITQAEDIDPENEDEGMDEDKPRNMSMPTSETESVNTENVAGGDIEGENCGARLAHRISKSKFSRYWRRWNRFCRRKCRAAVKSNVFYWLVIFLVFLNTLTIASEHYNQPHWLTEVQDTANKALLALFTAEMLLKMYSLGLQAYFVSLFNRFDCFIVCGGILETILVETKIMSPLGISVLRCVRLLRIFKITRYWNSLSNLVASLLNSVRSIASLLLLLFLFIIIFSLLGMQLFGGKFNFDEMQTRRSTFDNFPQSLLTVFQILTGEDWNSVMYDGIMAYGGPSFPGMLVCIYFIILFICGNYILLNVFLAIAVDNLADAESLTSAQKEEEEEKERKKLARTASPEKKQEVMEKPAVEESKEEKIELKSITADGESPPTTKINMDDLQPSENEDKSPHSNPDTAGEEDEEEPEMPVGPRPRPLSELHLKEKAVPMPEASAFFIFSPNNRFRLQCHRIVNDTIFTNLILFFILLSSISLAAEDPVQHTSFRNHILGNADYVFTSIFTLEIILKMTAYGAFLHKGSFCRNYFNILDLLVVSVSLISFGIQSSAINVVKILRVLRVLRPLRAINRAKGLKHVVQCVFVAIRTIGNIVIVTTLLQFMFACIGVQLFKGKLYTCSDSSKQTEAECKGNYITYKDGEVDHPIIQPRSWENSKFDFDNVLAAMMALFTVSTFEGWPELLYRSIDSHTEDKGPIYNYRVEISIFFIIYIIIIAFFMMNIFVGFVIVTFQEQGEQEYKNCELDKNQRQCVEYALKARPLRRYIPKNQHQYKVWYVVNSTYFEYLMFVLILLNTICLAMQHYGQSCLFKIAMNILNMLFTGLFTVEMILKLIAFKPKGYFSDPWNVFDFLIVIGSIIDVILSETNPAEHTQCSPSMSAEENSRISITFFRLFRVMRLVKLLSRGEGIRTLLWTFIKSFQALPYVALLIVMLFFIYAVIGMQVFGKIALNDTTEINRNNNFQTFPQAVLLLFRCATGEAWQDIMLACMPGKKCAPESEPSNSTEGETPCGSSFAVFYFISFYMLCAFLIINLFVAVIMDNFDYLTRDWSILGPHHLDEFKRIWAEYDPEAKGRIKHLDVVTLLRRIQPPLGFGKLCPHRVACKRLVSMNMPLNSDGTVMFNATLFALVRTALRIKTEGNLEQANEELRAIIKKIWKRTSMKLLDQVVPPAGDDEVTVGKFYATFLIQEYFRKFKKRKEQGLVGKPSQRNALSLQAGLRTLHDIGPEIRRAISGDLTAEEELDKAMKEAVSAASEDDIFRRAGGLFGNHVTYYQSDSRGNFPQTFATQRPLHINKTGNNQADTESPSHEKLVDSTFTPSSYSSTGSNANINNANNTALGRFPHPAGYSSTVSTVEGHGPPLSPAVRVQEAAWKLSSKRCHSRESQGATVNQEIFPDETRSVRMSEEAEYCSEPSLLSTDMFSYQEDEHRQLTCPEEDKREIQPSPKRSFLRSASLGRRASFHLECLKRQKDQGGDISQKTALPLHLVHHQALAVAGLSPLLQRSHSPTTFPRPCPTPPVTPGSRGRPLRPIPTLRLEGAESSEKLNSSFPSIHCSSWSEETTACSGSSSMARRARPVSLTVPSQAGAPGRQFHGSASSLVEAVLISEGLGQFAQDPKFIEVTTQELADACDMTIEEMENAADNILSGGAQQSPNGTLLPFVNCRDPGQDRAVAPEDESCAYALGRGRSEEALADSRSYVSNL

The target of experiment [1] is T1, KATP channel subunit Kir6.2 (mouse (endogenous in MIN6)) (UniProt Q61743).
T1 sequence: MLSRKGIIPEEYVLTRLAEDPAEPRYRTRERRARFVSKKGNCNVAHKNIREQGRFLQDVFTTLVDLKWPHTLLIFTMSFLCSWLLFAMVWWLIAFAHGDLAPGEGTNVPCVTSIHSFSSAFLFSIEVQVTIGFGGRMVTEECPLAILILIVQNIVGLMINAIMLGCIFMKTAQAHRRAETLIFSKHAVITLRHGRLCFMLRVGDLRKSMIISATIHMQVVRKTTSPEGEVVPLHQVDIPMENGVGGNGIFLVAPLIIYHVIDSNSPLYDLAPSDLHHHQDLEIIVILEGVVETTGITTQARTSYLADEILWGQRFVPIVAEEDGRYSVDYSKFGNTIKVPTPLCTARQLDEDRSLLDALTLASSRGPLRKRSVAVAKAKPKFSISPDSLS

Experiment [2] has as its target voltage-gated calcium channel CaV1.2 (mouse (endogenous in MIN6 and in mouse primary beta cells)) (UniProt Q01815).
Experiment [3] concerns the target voltage-gated calcium channel CaV1.2 (mouse (endogenous in MIN6 and in mouse primary beta cells)), Q01815. Conditions: remark: other sources report otherwise.

Results are given in words; binding and its absence hold for the method and conditions named. In cells and extracts the contact can be indirect. Some entries that bind do so weakly or less than the wild type.

B1: calnexin-1 (protein, UniProt P35564 21-591)
chain: HDGHDDDAIDIEDDLDDVIEEVEDSKSKSDASTPPSPKVTYKAPVPTGEVYFADSFDRGSLSGWILSKAKKDDTDDEIAKYDGKWEVDEMKETKLPGDKGLVLMSRAKHHAISAKLNKPFLFDTKPLIVQYEVNFQNGIECGGAYVKLLSKTAELSLDQFHDKTPYTIMFGPDKCGEDYKLHFIFRHKNPKTGVYEEKHAKRPDADLKTYFTDKKTHLYTLILNPDNSFEILVDQSVVNSGNLLNDMTPPVNPSREIEDPEDRKPEDWDERPKIADPDAVKPDDWDEDAPSKIPDEEATKPEGWLDDEPEYIPDPDAEKPEDWDEDMDGEWEAPQIANPKCESAPGCGVWQRPMIDNPNYKGKWKPPMIDNPNYQGIWKPRKIPNPDFFEDLEPFKMTPFSAIGLELWSMTSDIFFDNFIISGDRRVVDDWANDGWGLKKAADGAAEPGVVLQMLEAAEERPWLWVVYILTVALPVFLVILFCCSGKKQSNAMEYKKTDAPQPDVKDEEGKEEEKNKRDEEEEEEKLEEKQKSDAEEDGVTGSQDEEDSKPKAEEDEILNRSPRNRKPRRE
With B1, the binding result was “binds weakly” in experiment [1] and “binds” in experiment [2].

B2: derlin-1 (protein, UniProt Q99J56 1-251)
chain: MSDIGDWFRSIPAITRYWFAATVAVPLIGKLGIISPAYFFLWPEAFLYRFQIWRPFTATFYFPVGPGTGFLYLVNLYFLYQYSTRLEAGAFDGRPADYLFMLLFNWICIVITGLAMDMQLLMIPLIMSVLYVWAQLNRDLIVSFWFGTRFKACYLPWVILGFNYIIGGSVINELIGNLVGHLYFFLMFRYPMDLGGRNFLSTPQFLYRWLPSRRGGVSGFGVPPASMRRAADQNGGGGRHNWGQGFRLGDQ
As for B2, in experiment [1], the binding entry is recorded as “binds weakly”.

B3: derlin-1, Q99J56 1-251 (protein)
chain: MSDIGDWFRSIPAITRYWFAATVAVPLIGKLGIISPAYFFLWPEAFLYRFQIWRPFTATFYFPVGPGTGFLYLVNLYFLYQYSTRLEAGAFDGRPADYLFMLLFNWICIVITGLAMDMQLLMIPLIMSVLYVWAQLNRDLIVSFWFGTRFKACYLPWVILGFNYIIGGSVINELIGNLVGHLYFFLMFRYPMDLGGRNFLSTPQFLYRWLPSRRGGVSGFGVPPASMRRAADQNGGGGRHNWGQGFRLGDQ
B3: in experiment [3], the binding entry is “binds”.

Source of the values: paper PMC11549326.
